Results from one PubChem assay

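Genome-wide siRNA knockdown in TC32 Ewing sarcoma cells, comparing luciferase light from an NR0B1-promoter reporter with a CMV-promoter reporter 48 hours after transfection. Each siRNA was applied at 20 nM. A z-score of the log NR0B1-over-CMV signal, less the median of siRNAs with the same seed; more negative means a stronger specific loss of the NR0B1 reporter.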

This is part of the screen; most of the strongest results are not listed here. Sequences are the guide (antisense) strand, without overhang.

With UUGACAUUCAGCUCAUCCC against KLHL18 the assay gave seed-corrected z-score -0.6265. For UUUAGUAUGAUCCAAUGUC against INTS2 the result was seed-corrected z-score -0.1738. Result for UCUACGAUAAGGACCCUCC against HDAC6 was seed-corrected z-score -0.2496. UUCCGUGUCACCUCCCAUG against KLHL25 gave seed-corrected z-score -0.7267.

Result for UUUAAUGUAACCUUUCCUC against ALKBH8 was seed-corrected z-score -0.4826. UCAGUGACAAGACCUUGCC against STK11IP read seed-corrected z-score 0.3744. With UAUUUCAUCAGUGAGUCUG against ACCSL the assay gave seed-corrected z-score -0.2378. AGAAUUCUACUGAUUAUCC against AGMAT gave seed-corrected z-score 0.1369.

UCAGUGAUGUUAUCUAUAC against TMEM200A read seed-corrected z-score 0.1582. UUGGUUGUCAUGUUCUUCC against IFIT1 gave seed-corrected z-score -0.7511. Result for UUCGAUGAGGCAAUGCUGG against ROBO2 was seed-corrected z-score 0.2224. UAGGAUCUUGGUCACGUCC against DPP6 gave seed-corrected z-score -0.02914.

With AUUUAUGUAAGCAAGGUAC against SMARCE1 the assay gave seed-corrected z-score -0.3463. UUUGAAUCUUGAUAGUAGG against HERC3 read seed-corrected z-score 0.5854. UGUACACUCACAGUCAAGC against RAD54B read seed-corrected z-score -0.5562. Result for ACUGUAAUCAUUGCGGGUG against STAT5B was seed-corrected z-score -0.04811.

UUGAGUUCAUCUAUCAUCC against RAI14 gave seed-corrected z-score -0.1027. With UCACAUUUUGUGAAUUGCU against LALBA the assay gave seed-corrected z-score -0.3496. With UCCACUAUCAGGUACAUGA against STRIP1 the assay gave seed-corrected z-score 0.7858. UAACAGCUCCUGUUCAUUC against ADPGK gave seed-corrected z-score -0.0921.

AUAACAUCAAGAAUCCAUC against C14orf28 read seed-corrected z-score -0.0875. For AAUGAUGUUAGGAUGGUCG against EPHB1 the result was seed-corrected z-score 0.6258. With UAUUGAUAGAGGGCAUUGC against IP6K1 the assay gave seed-corrected z-score 0.5036. For UAUGUUGUGCCUACAAUAC against ADAM20 the result was seed-corrected z-score -1.663.

AAUUGAAUCGGUUAAGCAG against NSUN3 read seed-corrected z-score 0.1352. UUAAUAGUCAGCACAACAU against KLHL26 gave seed-corrected z-score 0.07507. For AUAGGAGCGAAGAGUAUAG against SIGMAR1 the result was seed-corrected z-score -0.4852. With AAAGGGUUCCUCGCAGUAC against PUS1 the assay gave seed-corrected z-score 0.2212.

UUUGCAAUUCCAGUGAAAG against NRBF2 read seed-corrected z-score -0.09671. Result for UUAUCUUCCUUGACGGUGC against ADAMTSL1 was seed-corrected z-score 0.4962. Result for UAGCGGUAGAUGGAUUUCC against SORL1 was seed-corrected z-score 0.6587. Result for UUAGAACGAAGAAAACUGU against OR13C8 was seed-corrected z-score 0.132.

AAACUGUAGGGUUUUCAUC against GPR55 gave seed-corrected z-score -0.2442. UCUGUUGAAACAGGUGUAG against USPL1 read seed-corrected z-score 0.06293. UUUCCAAGAAUCGAAAGUG against PPP1R3C read seed-corrected z-score -1.374. UUCACUCCUAACUUGGCUG against SCGB1D2 gave seed-corrected z-score 0.01089.

Result for UGUCUGAUCAUAGGAUGCC against GLIPR2 was seed-corrected z-score 0.272.

3 of the entries, repeated:

Sequence,target gene,seed-corrected z-score
UGUACACUCACAGUCAAGC,RAD54B,-0.5562
UUGAGUUCAUCUAUCAUCC,RAI14,-0.1027
UAGGAUCUUGGUCACGUCC,DPP6,-0.02914

Data taken from PubChem BioAssay AID1159506, deposited by NCATS (2015).